Experiment: Continued coupling: difference in Dmin without stop bath versus with stop bath (C-41 process variants)
Details: for Delta Dmin Process A-C: bleach pH 5.25; for Delta Dmin Process B-C: bleach pH 6.0; for reduction of delta Dmin relative to comparative films containing S1 alone: process B, C5 in combination with A1
Description: Dispersions of couplers Ml and M2 were prepared (a) in comparative coupler solvents S1 and S2, (b) in a carbonamide coupler solvent of this invention, C1, and (c) in a 0.8:0.2 mixture of S1 and aniline compound A1. The weight ratio of coupler:solvent or coupler:solvent and aniline was 1:1. Dispersions were prepared by dissolving the coupler in a 1:3 mixture of coupler solvent plus cyclohexanone used as an auxiliary solvent, and aniline, if present. The mixtures were then added to an aqueous solution of gelatin and ALKANOL XC surfactant. The two-phase mixtures were passed through a colloid mill to disperse the coupler-containing oil phase in the aqueous phase in the form of small particles. The dispersion was then chilled, noodled and washed to remove the auxiliary cyclohexanone solvent. The resulting dispersions contained approximately 2% by weight of coupler and 6% by weight of gelatin.
The dispersions were coated on a transparent support at a coupler laydown of 0.54 mmole/m^2 together with a silver bromoiodide emulsion at a silver laydown of 1.08 g/m^2 in the following format:
The BVSME hardner is of the formula (CH2 =CH SO2 CH2--2 O. Coatings were then exposed and subjected to variants of the KODAK FLEXICOLOR (C-41) process described below. The C-41 process is described in British Journal of Photography Annual, 1988, pp. 196-198, discussed above. A first set of films was subjected to the standard C-41 process with no stop bath between the development and bleach steps (process A). A second set of films was also processed without a stop bath but with the FLEXICOLOR bleach pH adjusted to 6.0 instead of the normal 5.25 (process B). This was intended to simulate behavior in a "seasoned" bleach with increased pH due to carry-over of base from the developer solution. A third set of films was processed with an acetic acid stop bath between the development and bleach steps to eliminate any continued coupling (process C).
The differences in Dmin values resulting from process A and process C or process B and process C are measures of the continued coupling at bleach pH values of 5.25 and 6.0, respectively. Photographic gamma values, which serve as a measure of coupler activity, were obtained from plots of status M green density versus exposure for the various film samples subjected to process A. These gamma values are also listed in Table II.
Dispersions of pyrazolone magenta dye-forming couplers M3 and M4 were prepared in combination with coupler solvents S1 and C5, with and without aniline compound A1 by procedures similar to those of Example 2. The coupler:coupler solvent weight ratio was 1:1 for the dispersions without A1, and the dispersions with A1 were prepared at a 1:0.8:0.2 coupler:coupler solvent:A1 weight ratio. A dispersion of M4, C5 and amine compound All at M4:C5:All weight ratios of 1.0:0.85:0.15 was similarly prepared. These dispersions were coated on transparent supports at a coupler laydown of 0.54 mmole/m^2 together with a silver bromoiodide emulsion at a silver laydown of 1.08 g/m^2 as in Example 2. Hardened coatings were exposed and processed using procedures described in Example 2. The differences in Dmin values obtained with process A (Bleach pH=5.25, no stop bath) versus process C (Bleach pH=5.25, with stop bath) and with process B (Bleach pH= 6.0, no stop bath) versus process C are listed in Table III. Larger differences are indicative of higher undesirable continued coupling.

[1] = Table II, solvent S1(0.8), aniline A1(0.2)
[2] = Table II, solvent C1(1.0), no aniline
[3] = Table II, solvent S1(1.0), no aniline
[4] = Table II, solvent S2(1.0), no aniline
[5] = Table III, solvent C5(0.8), aniline A1(0.2)
[6] = Table III, solvent S1(0.8), aniline A1(0.2)
[7] = Table III, solvent C5(0.85), amine A11(0.15)

Row | Compound | Delta Dmin Process A-C [1] | Delta Dmin Process B-C [1] | Delta Dmin Process A-C [2] | Delta Dmin Process B-C [2] | Delta Dmin Process A-C [3] | Delta Dmin Process B-C [3] | Delta Dmin Process A-C [4] | Delta Dmin Process B-C [4] | Delta Dmin Process A-C [5] | Delta Dmin Process B-C [5] | Delta Dmin Process A-C [6] | Delta Dmin Process B-C [6] | reduction of delta Dmin relative to comparative films containing S1 alone | Delta Dmin Process A-C [7] | Delta Dmin Process B-C [7]
1 | CCCCCCCCCCCCNS(=O)(=O)c1ccc(NC2=NN(c3c(Cl)cc(Cl)cc3Cl)C(=O)C2Sc2cc(C(C)(C)CC(C)(C)C)ccc2OCCCC)c(Cl)c1 (stereo not shown) [Coupler M1] | 0.03 | 0.09 | – | – | – | – | – | – | – | – | – | – | – | – | –
2 | CCCCCCCCCCCCNS(=O)(=O)c1ccc(NC2=NN(c3c(Cl)cc(Cl)cc3Cl)C(=O)C2Sc2ccc(C(C)(C)CC)cc2C(C)(C)CC)c(Cl)c1 (stereo not shown) [Coupler M2] | 0.00 | 0.06 | 0.00 | 0.03 | 0.05 | 0.17 | 0.09 | 0.25 | – | – | – | – | – | – | –
3 | CCCCCCCCCCCCCC(=O)Nc1ccc(Cl)c(NC2=NN(c3c(Cl)cc(Cl)cc3Cl)C(=O)C2Sc2ccccc2NC(=O)C(CC)Oc2ccc(C(C)(C)CC)cc2C(C)(C)CC)c1 (stereo not shown) [Coupler M3] | – | – | – | – | – | – | – | – | 0.02 | 0.05 | 0.03 | 0.09 | five-fold | – | –
4 | CCCCCCCCCCCCNS(=O)(=O)c1ccc(NC2=NN(c3c(Cl)cc(Cl)cc3Cl)C(=O)C2Sc2ccccc2NC(=O)C(CC)Oc2ccc(C(C)(C)CC)cc2C(C)(C)CC)c(Cl)c1 (stereo not shown) [Coupler M4] | – | – | – | – | – | – | – | – | 0.05 | 0.12 | 0.17 | 0.33 | four-fold | 0.04 | 0.11

— US5200309A, “Color photographic materials including magenta coupler, carbonamide compound and aniline or amine compound, and methods” (Eastman Kodak Company, priority 1991, dated 1993)
